Source: PubChem BioAssay AID504648 (National Center for Advancing Translational Sciences (NCATS), 2011)
About 610 (0.16%) of roughly 390,000 compounds were called active. The inconclusive results got no clear call from the source; some entries with a clear call stand among them for comparison. The call rests on the fitted dose curve; in most records, active means well fitted inhibition curve with a large enough effect; inconclusive means small, poorly fitted or top-dose-only effect, or effect the other way, or another doubt; inactive means no such curve, though single readings can be large or run the other way. A potency beside an inconclusive call is a rough fit, not a confirmed value.

Assay: Nrf2 qHTS screen for inhibitors: counterscreen for cytotoxicity
Settings: A549 ARE-Fluc cells, CellTiter-Fluor viability, 18-24 h; activity change, negative = cytotoxicity: at 46 µM (top of the series)
In short: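 A549 ARE_Fluc cells in 5% FBS OPTI-MEM were exposed to compounds in concentration-response for 18-24 h at 37 deg C. Viability was read by CellTiter-Fluor fluorescence (Ex 405/Em 525) after 30 min, before the luciferase read.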
On the % scale 0 is the no-effect control and ±100 the full control effect; potency means the concentration at half of the fitted maximal effect.

Row | Compound | activity change, negative = cytotoxicity | Potency
1 | Cc1ccccc1CN1C(=O)c2ccccc2S(=O)c2ccc(C(=O)NCc3ccco3)cc21 (stereo unspecified) | inactive: -1.24% | 
2 | Cc1ccc(C)c(N2CCN(C(=O)C3CCN(C(=O)c4cc5sccc5n4C)CC3)CC2)c1 |  | inconclusive: 10.3 µM [falling, partial curve]
3 | Cc1cc(C)c(Cc2c(C)nc3c(C(=O)NCc4ccco4)cnn3c2C)c(C)c1 |  | inconclusive: 18.4 µM [falling, partial curve, poor fit]
4 | COc1ccc(S(=O)(=O)N2CCC(C(=O)NCc3ccncc3)CC2)cc1C |  | inconclusive: 14.6 µM [falling, single point]
5 | O=C1c2[nH]nc(-c3ccccc3O)c2C(c2ccc(Cl)cc2)N1CCc1ccccc1 (stereo unspecified) |  | inconclusive: 20.6 µM [falling, partial curve, poor fit]
6 | CC(C)(CC(=O)O)CC(=O)Nc1cc(C(F)(F)F)cc(C(F)(F)F)c1 |  | inconclusive: 20.6 µM [activator, single point]
7 | CCC1(CC)NC(=O)N(CC(=O)N2CCc3ccccc32)C1=O |  | inconclusive: 23.1 µM [activator, partial curve, poor fit]
8 | CCn1cc([N+](=O)[O-])c(C(=O)N2N=C(c3ccc4ccccc4c3)CC2c2cc(Br)ccc2O)n1 (stereo unspecified) |  | inconclusive: 20.6 µM [falling, single point]
9 | COc1ccc(NC(C)C(=O)N/N=C/c2ccc([N+](=O)[O-])s2)cc1 (stereo unspecified) |  | inconclusive: 29.1 µM [falling, single point]
10 | Cc1ccc(NC(=O)Nc2ccc3oc(C)nc3c2)cc1 |  | inconclusive: 32.6 µM [falling, partial curve, poor fit]
11 | COc1cccc(C(=O)Nc2ccc(-c3nnc(-c4ccco4)o3)cc2)c1 | inactive: -18.8% | 
12 | CC(C)c1ccc(NC(=S)NCCc2c[nH]c3ccccc23)cc1 |  | inconclusive: 29.1 µM [falling, single point]
13 | COc1cc(CNCCc2ccccc2)cc(Cl)c1OCc1ccccc1 |  | inconclusive: 29.1 µM [falling, single point]
14 | Cc1ccccc1OCCCSc1nc2ccccc2[nH]1 |  | inconclusive: 29.1 µM [falling, partial curve, poor fit]
15 | CN(C)S(=O)(=O)c1ccc(C(=O)NCCSc2ccc(Br)cc2)cc1 |  | inconclusive: 23.1 µM [falling, single point]
16 | CCOC(=O)c1cc(-c2ccc(OC)cc2)n(CCC(=O)Nc2ccc(OC)cc2OC)c1C | inactive: -26% | 
17 | N#Cc1c(N)c(C#N)c(-c2ccc(O)cc2)c2c1CCCC2 | inactive: -0.51% | 
18 | COc1cccc(-c2nc(SCC(=O)NC3CCCC3)c(-c3ccc(F)cc3)[nH]2)c1 |  | inconclusive: 20.6 µM [falling, partial curve, poor fit]
19 | COc1cc(NC(=O)CCc2c(C)nc3c4c(C)cc(C)nc4nn3c2C)cc(OC)c1 | inactive: 0.749% | 
20 | C=CCn1c(=N)c(C(=O)NCCCOC)cc2c(=O)n3ccccc3nc21 |  | inconclusive: 18.4 µM [activator, partial curve]
21 | CC(=O)Nc1ccc(Nc2ccc3nonc3c2[N+](=O)[O-])cc1 |  | inconclusive: 13 µM [falling, partial curve, poor fit]
22 | O=S(=O)(NCC(c1ccco1)N1CCN(c2ccccc2F)CC1)c1ccc2c(c1)OCCO2 (stereo unspecified) | inactive: -8.01% | 

An excerpt of these results, with each value named.
CC(C)(CC(=O)O)CC(=O)Nc1cc(C(F)(F)F)cc(C(F)(F)F)c1
  Potency: inconclusive: 20.6 µM [activator, single point]
CC(C)c1ccc(NC(=S)NCCc2c[nH]c3ccccc23)cc1
  Potency: inconclusive: 29.1 µM [falling, single point]
Cc1ccccc1OCCCSc1nc2ccccc2[nH]1
  Potency: inconclusive: 29.1 µM [falling, partial curve, poor fit]
COc1cc(NC(=O)CCc2c(C)nc3c4c(C)cc(C)nc4nn3c2C)cc(OC)c1
  activity change, negative = cytotoxicity: inactive: 0.749%

Remaining list, next part:

Row | Compound | activity change, negative = cytotoxicity | Potency
23 | O=C(N/N=C/c1ccccn1)c1cc(-c2ccc3ccccc3c2)n[nH]1 | inactive: 2.16% | 
24 | COc1ccccc1CN(C)C(=O)COC(=O)c1ccc(Cl)nc1 | inactive: 5.1% | 
25 | CCOc1ccc2nc(NCCNS(=O)(=O)c3ccccc3)c(C#N)cc2c1 |  | inconclusive: 8.2 µM [activator, partial curve]
26 | O=C(CN1c2ccccc2Sc2ccccc21)N/N=C/c1ccc([N+](=O)[O-])cc1 |  | inconclusive: 8.2 µM [falling, partial curve, poor fit]
27 | CCCC(=O)NC(C)C(c1cccs1)N1CCN(C)CC1 (stereo unspecified) |  | inconclusive: 25.9 µM [activator, partial curve, poor fit]
28 | CCCC[C@@H]1CN=C(N)N1CCc1cc(C(F)(F)F)cc(C(F)(F)F)c1 |  | inconclusive: 29.1 µM [falling, single point]
29 | Cc1ccc(Nc2sc(C(=O)c3ccccc3)c(N)c2S(=O)(=O)c2ccccc2)c(C)c1 | inactive: -12.4% | 
30 | CCNC(=O)/C(C#N)=C/c1c(N2CC(C)OC(C)C2)nc2ccccn2c1=O (stereo unspecified) |  | inconclusive: 13 µM [falling, partial curve, poor fit]
31 | O=C1[C@@H]2[C@H](C(=O)N1CC(O)COCc1ccccc1)C1C=C[C@H]2C1 (stereo partly specified) |  | inconclusive: 0.259 µM [activator, full curve]
32 | CNc1ncnc(Sc2nc(N)nc3nc[nH]c23)c1[N+](=O)[O-] |  | inconclusive: 18.4 µM [falling, partial curve, poor fit]
33 | CCOC(=O)c1c(-c2ccccc2Cl)csc1NC(=O)c1cc(S(=O)(=O)N2CCOCC2)ccc1C |  | inconclusive: 2.91 µM [activator, partial curve, poor fit]
34 | O=C1CCC(c2ccc3ccccc3c2)O1 (stereo unspecified) | inactive: -0.881% | 
35 | O=C(NCCN1CCOCC1)c1ccc2ccccc2c1 | inactive: 0.227% | 
36 | CCc1nnc(NC(=O)CCC(=O)N2CCN(Cc3ccc(Cl)cc3)CC2)s1 | inactive: -14.9% | 
37 | Cc1[nH]c2ccccc2c1C(=O)COC(=O)c1ccc([N+](=O)[O-])s1 |  | inconclusive: 29.1 µM [falling, single point]
38 | O=C(C1CCC(CNc2nc(=S)[nH]c3ccccc23)CC1)N1CCN(c2ccc(F)cc2)CC1 (stereo unspecified) |  | inconclusive: 29.1 µM [falling, single point]
39 | CC(=O)N1CCN(CC(=O)Nc2c(Cl)cccc2Cl)CC1 |  | inconclusive: 11.6 µM [falling, partial curve, poor fit]
40 | COc1ccc2[nH]cc(CCNC(=O)c3cnn(-c4ccccc4Cl)c3C3CCN(C(=O)OC(C)(C)C)CC3)c2c1 |  | inconclusive: 29.1 µM [falling, single point]
41 | CCc1nc(C)ccc1OCC(=O)O | inactive: -0.515% | 
42 | COc1ccc(C(=O)N/N=C/c2ccc(N(C)c3ccccc3)cc2)cc1 | inactive: -1.56% | 
43 | O=C(N/N=C/C=C\c1ccccc1[N+](=O)[O-])c1cc(-c2ccc3ccccc3c2)n[nH]1 |  | inconclusive: 18.4 µM [falling, partial curve, poor fit]
44 | O=C(CCS(=O)(=O)c1ccc(Br)cc1)N1CCN(c2ccc(Cl)cc2)CC1 |  | inconclusive: 4.61 µM [activator, partial curve, poor fit]

Row | Compound | activity change, negative = cytotoxicity | Potency
45 | CCOc1ccc(Nc2ccc3nonc3c2[N+](=O)[O-])cc1 |  | inconclusive: 3.66 µM [falling, partial curve, poor fit]
46 | Cc1ccc(N2CCN(CC(O)COc3cccc4ccccc34)CC2)cc1 (stereo unspecified) |  | inconclusive: 5.8 µM [activator, full curve]
47 | COc1ccc(N/C=C2\CCc3ccccc3C2=O)cc1 |  | inconclusive: 14.6 µM [falling, partial curve, poor fit]
48 | CCOC(=O)Cc1ccc(NC(=O)c2ccc(C(C)(C)C)cc2)cc1 |  | inconclusive: 29.1 µM [falling, partial curve, poor fit]
49 | CCS(=O)(=O)N1CCc2cc(C(=O)Nc3ccc(OC)cc3OC)ccc21 | inactive: -10.4% | 
50 | COc1cc(OC)c(NC(=O)c2c3c(nc4ccccc24)C(=O)N(C2CCCCC2)C3)cc1Cl | inactive: -8.04% | 
51 | Cc1cc(NC2=CC(=O)C(=O)c3ccccc32)no1 |  | inconclusive: 20.6 µM [falling, single point]
52 | CCOc1cc(C(c2c(C)[nH][nH]c2=O)c2c(C)[nH][nH]c2=O)cc([N+](=O)[O-])c1O |  | inconclusive: 23.1 µM [falling, partial curve, poor fit]
53 | COCCCNC(CC(=O)Nc1ccc(OC)cc1OC)C(=O)O (stereo unspecified) |  | inconclusive: 6.51 µM [activator, partial curve, poor fit]
54 | O=C(CCS(=O)(=O)c1ccccc1)Nc1nnc(C(F)(F)F)s1 |  | inconclusive: 11.6 µM [falling, partial curve, poor fit]
55 | COc1ccc(C(NC(=O)c2cccnc2)c2cc(Cl)c3cccnc3c2O)cc1OC (stereo unspecified) |  | inconclusive: 29.1 µM [falling, single point]
56 | c1ccc(-c2noc(-c3ccc4ccccc4c3)n2)nc1 | inactive: -11.1% | 
57 | CN=C1S/C(=C\c2ccc(N3CCOCC3)c(F)c2)C(=O)N1C | inactive: -17% | 
58 | O=C(C[C@H]1C[C@H](C(=O)N2CCCCC2)[C@@]2(CCc3ccccc3)c3[nH]c4ccc(Cl)cc4c3CCN2C1=O)NCCC1=CCCCC1 | inactive: 2.44% | 
59 | O=C(COc1cccc2ccccc12)N1c2ccccc2CCc2ccccc21 |  | inconclusive: 16.4 µM [falling, single point]
60 | COc1ccc(/C=C2\C(=O)N(c3c(Cl)cc(Cl)cc3Cl)N=C2NC(=O)c2cccc([N+](=O)[O-])c2)cc1 | inactive: -2.9% | 
61 | Cc1cccc(-n2cnc3cc(C(=O)NC4CCCCCC4)ccc32)c1 |  | inconclusive: 16.4 µM [falling, single point]
62 | CCOC(=O)c1ccc(NC(=O)c2c(NCc3cc(OC)ccc3OC)sc3c2CCC3)cc1 | inactive: 5.49% | 
63 | CCn1cc(C(=O)Nc2ccc(C(C)C)cc2)c2cc(OC)c(OC)cc2c1=O | inactive: 9.6% | 
64 | Cc1cccc(C)c1NC(=O)CN1C(=O)c2ccccc2Sc2ncccc21 | inactive: 0.235% | 
65 | COc1cc(C(=O)NNC(=O)c2ccc3ccccc3n2)cc(OC)c1OC |  | inconclusive: 25.9 µM [falling, single point]
66 | COc1ccc2c(CC(=O)Nc3ccc(OC)c(NS(=O)(=O)c4ccc(F)cc4)c3)coc2c1 |  | inconclusive: 32.6 µM [falling, partial curve, poor fit]
